Measurements taken from patent publication US20220187308A1.
These are yes or no findings as the source states them, for the method shown. Some entries that bind do so weakly or less than the wild type.

By UniProt entry, the sequences of proteins in these tests, tags left out. Residues count along the entry.
UniProt P05231, residues 30-212: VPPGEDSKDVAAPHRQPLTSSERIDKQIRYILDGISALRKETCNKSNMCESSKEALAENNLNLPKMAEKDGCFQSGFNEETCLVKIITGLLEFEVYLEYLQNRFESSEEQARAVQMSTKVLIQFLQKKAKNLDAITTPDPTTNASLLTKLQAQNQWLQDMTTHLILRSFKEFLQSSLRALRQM

Molecular target: biotin-labeled IL-6 (UniProt P05231)
Assay: phage ELISA (Fab displayed on phage) on biotin-labeled IL-6 on a StreptaWell plate, 1.2 mM CaCl2 against 1 mM EDTA

B1: 6KC4-1 #85 antibody (antibody, IgG1, V domains shown)
VH: EVQLVESGGGLVQPGGSLRLSCAASGFTFSSYEMNWVRQAPGKGLEWVSYISSSGSTIYYADSVKGRFTISRDNAKNSLYLQMNSLRAEDTAVYYCARDAPYYYDSSGYTDAFDIWGQGTMVTVSS
VL: EIVLTQSPATLSLSPGERATLSCRASQSVSSYLAWYQQKPGQAPRLLIFDASNRAAGIPARFSGSGSGTDFTLTISSLEPEDFAVYYCQQFDKWVTFGGGTTVEIR
binding: binds
